The values below come from PubChem BioAssay AID463116 (University of Pittsburgh Molecular Library Screening Center, 2010).

The structures appear in SMILES notation. The list shows a part of the results. Further columns of the screen follow, without active or inactive calls. Compounds called inactive in the main read-out are mostly missing here.

A short description of the test: dynein cargo transport inhibitors, GR-EGFP translocation, confirmation, imaging, high-content imaging, GR-EGFP cells (AID 463116). The settings on record: 3617.4 GR-EGFP nuclear translocation imaging, dexamethasone-induced; measured here: cell count per field; at 20 µM.
The compound `CCc1sc(C(C2C(=O)CC(C)(C)CC2=O)C2C(=O)CC(C)(C)CC2=O)cc1[N+](=O)[O-]` registered a z-score of -0.404. `COc1cccc(/C=C/C(=O)c2cccc([N+](=O)[O-])c2)c1` displayed a z-score of -0.44. In the case of `COc1cc(NC(=O)Cn2ncc(Cl)c(Cl)c2=O)c(C)cc1[N+](=O)[O-]` it was 0.0435; in that of `Cc1ccc(C(=O)N/C(=C\c2ccc(-c3ccc(Cl)cc3)o2)C(=O)NCCCN(C)C)cc1`, -5.27; in that of `CC(C)N1C(=O)/C(=C/c2nc3ccccc3c(=O)n2-c2ccccc2)c2ccccc21`, 0.587.

The compound `Cc1ccc(C2=NN(C(=O)CCl)C(c3cccs3)C2)o1` (configuration not stated) yielded a z-score of 0.237.

In turn, `O=C1C(Cl)=C(N2CCCCC2)C(=O)C(Cl)=C1c1cnc(N2CCCCC2)s1` showed a z-score of -0.951. `N#CCCS(=O)(=O)c1nnnn1-c1ccccc1` showed a z-score of -1.09.

In turn, `Cc1ccc(S(=O)(=O)/N=C(\CCl)N2CCOCC2)cc1` came in with a z-score of 0.779. To `COc1ccc(OC)c(CCNC(=O)Cn2sc3nc(C)cc(C)c3c2=O)c1` belongs -1.38; to `COC(=O)c1cc(NC(=O)c2cccc(Cl)c2)c(=O)oc1/C=C/Nc1cc(C)cc(C)c1`, 0.037; to `O=C(/C=C\c1ccccc1OC(=O)c1ccccc1F)c1cc2ccccc2o1`, -0.761. Compound `COc1cc(N2CCCC2)c(OC)cc1/C=C1/NC(=S)NC1=O` came in with a z-score of 0.298. Compound `COc1cccc(C(=O)C(C#N)=C(SC)SC)c1` registered a z-score of 0.409. In the case of `Cc1ccccc1-n1sc2cc(F)ccc2c1=O` it was 0.688; in that of `Cc1ccccc1-n1nnnc1Sc1nnnn1-c1ccccc1`, -0.393; in that of `COc1ccc(Nc2ccccc2N)cc1`, -0.0262.

`O=C(CCl)N(C/C=C/c1ccccc1)c1ccc2c(c1)OCCO2` showed a z-score of 0.0574. Turning to `CCCCCCc1cc2cc(C(=O)NC)c(=N)oc2cc1O`, the z-score was determined as 0.424. In the case of `O=C(O)c1ccc(NC2=C/C(=N/S(=O)(=O)c3ccccc3)c3ccccc3C2=O)cc1` it was 0.214. In the case of `COc1cc(/C=C2/C(=O)c3cccc([N+](=O)[O-])c3C2=O)c(Br)cc1O`, the z-score is -0.108. To `N#CC(C#N)=C1C=C2C=C(N3CCCCCC3)CCC2CC1` (configuration not stated) belongs 0.233; to `Cc1ccc(NN2C(=O)C=C(c3ccccc3)C2=O)cc1`, 0.678; to `CCOC(=O)c1cc(-c2ccc(/C=C3/C(=O)NC(=O)C(C#N)=C3C)o2)ccc1Cl`, 0.391. `O=C1C=CC2C(c3ccc4c(c3)OCO4)CC1N2Cc1ccccc1` (configuration not stated) registered a z-score of -0.0299. In the case of `O=[N+]([O-])/C=C/c1cn(Cc2ccccc2)c2ccccc12` it was 0.373; in that of `C#CC(=O)N(c1ccc(OC)cc1OC)C(C(=O)NC1CCCC1)c1cccs1` (configuration not stated), 0.176. `CC1=NOC(=O)/C1=C\c1ccc(-c2ccc(Br)cc2)o1` came in with a z-score of 0.304. To `O=S1(=O)C=C(Sc2nc3ccccc3s2)c2ccccc21` belongs -0.38.

In the case of `COc1cc2c(cc1OC)CN(CCC(=O)c1ccc(Br)cc1)CC2`, the z-score is 0.228. `Cc1nc2c(=O)n(C)c(=O)n(C)c2nc1Cl` returned a z-score of 0.676. To `Cc1cc(C(=O)CCl)c(C)n1Cc1ccco1` belongs 0.371; to `COc1cc(/C=C2\COC/C(=C\c3ccc(O)c(OC)c3)C2=O)ccc1O`, -0.00515.

Consider `Clc1ccc(-c2csc3ncnc(Cl)c23)cc1`, for which the z-score worked out at 0.934. In the case of `CN(C)CCCn1c(SCC(=O)N2c3ccccc3Sc3ccccc32)nc2ccccc2c1=O` it was -6.66; in that of `O=C(Cn1ncc(Cl)c(Cl)c1=O)c1ccc(Cl)cc1`, 1.13; in that of `BrC(=C\c1ccccc1)/C=N/n1cnnc1`, -0.00497.

Consider `Nc1ccc2c3c(cccc13)C(=O)N(c1ccccc1)C2=O`, for which the z-score came to 0.564. In the case of `O=C(CCl)N(c1ccccc1)c1ccccc1` it was 0.159; in that of `CC(C)N1C(=O)/C(=C\c2nc3ccccc3c(=O)n2-c2ccccc2)c2ccccc21`, 0.246.

As for `O=[N+]([O-])c1ccc(N/N=C/c2ccc[nH]2)cc1`, the z-score was 0.477. To `Nc1ncnc(Sc2ncccn2)c1[N+](=O)[O-]` belongs -0.901.

Compound `CC(c1ccccc1)N1CCN(C(=O)CCl)CC1` (configuration not stated) had a z-score of 0.351. To `Cc1ccc(C2=NOC(=O)/C2=C\c2ccc(C)o2)cc1` belongs 0.125; to `COc1ccc(C(=O)c2sc3nc(C)cc(-c4cccs4)c3c2N)cc1OC`, -0.414; to `Cc1cc(C)cc(Cn2ncc(Cl)c(Cl)c2=O)c1`, 0.386. To `O=C(/C=C/c1ccccc1)/C=C/c1ccccc1` belongs -0.232; to `Cc1ccc(-c2nc3cnccn3c2Nc2ccccc2)o1`, 0.547; to `N#C/C(=C/c1ccc(N2CCCCCC2)o1)c1ccc(F)cc1`, 0.806. To `COc1ccc(Oc2ccc(/C=C/C(=O)c3ccc(O)cc3)cc2[N+](=O)[O-])cc1` belongs -0.45; to `Cc1ccc(C(=O)OCn2ncc(Cl)c(Cl)c2=O)cc1`, 0.00437. For the compound `COc1ccc(NC(=O)CC2Sc3ncnn3C2=O)cc1` (configuration not stated), the z-score amounted to 0.499. The compound `O=C(Nc1ccc(N2CCN(C(=O)c3ccc(Cl)cc3)CC2)cc1)c1ccc([N+](=O)[O-])o1` gave a z-score of 0.124. With `Cc1nc([N+](=O)[O-])c(Br)n1CC(=O)c1ccc(F)cc1`, the z-score is 0.326. In the case of `Cc1ccc2nc(Cl)c3nnnn3c2c1` it was 0.433; in that of `O=C1C(Cl)=C(Nc2ccc3cn[nH]c3c2)C(=O)c2ccccc21`, 0.691. To `Cc1cccc(N(Cc2ccccc2)C(=O)CCl)c1` belongs 0.505; to `Cc1cc(-n2c(C)cc(C(=O)CCl)c2C)no1`, -0.0372; to `O=C1C=CC(=O)N1CCNc1ncc(C(F)(F)F)cc1Cl`, 0.022. As for `CNC(=O)c1nnsc1S(=O)(=O)c1ccc(Cl)cc1`, the z-score turned out to be 0.058. In turn, `C#CC(=O)N(c1ccc(OC)c(OC)c1)C(C(=O)NC1CCCC1)c1cccs1` (configuration not stated) displayed a z-score of 0.893.

As for `Cc1cccc(CS(=O)(=O)c2nnc([C@H](Cc3ccccc3)NC(=O)OC(C)(C)C)o2)c1`, the z-score is -0.732.

`CC[n+]1c(/C=C/C=C/N(C(C)=O)c2ccccc2)sc2ccccc21` had a z-score of 0.344. Compound `Cc1cc(C)c2c(=O)n(CC(=O)NCCCN3CCN(c4ccccc4F)CC3)sc2n1` came in with a z-score of 0.701. Consider `Cc1ccc(C(=O)/C=C/c2ccccc2[N+](=O)[O-])cc1`, for which the z-score came to 0.256. To `O=C(/C=C/c1ccc(F)cc1)c1ccccc1Br` belongs 0.211. In the case of `COc1ccc(-c2cc(C(F)(F)F)nc(S(=O)(=O)CCCC(=O)Nc3cccnc3Cl)n2)cc1OC` it was 0.121; in that of `COc1cc(C2Oc3ccccc3C=C2[N+](=O)[O-])cc(OC)c1OC` (configuration not stated), -0.401. In the case of `Cn1c(=O)[nH]c(=O)c2c1nc([N+](=O)[O-])n2Cc1ccccc1` it was -0.66.

As to `CCCc1nc2oc3c(Cl)ncnc3c2c2c1CCCC2`, the z-score stood at 0.363. In the case of `O=C1/C(=C/c2ccccc2[N+](=O)[O-])COc2ccccc21` it was -1.01. `Cc1ccc(SC(=O)c2c([N+](=O)[O-])c(C)nn2C)cc1` gave a z-score of 0.25. To `COC1=C(C)C(O)=C(C(=O)/C=C/c2ccccc2)C(=O)C1(C)C` belongs 0.649; to `Cc1ccc(C(=O)Oc2oc(-c3ccco3)nc2C=Nc2ccc(Cl)cc2)cc1`, 0.107; to `CS(=O)(=O)c1ccc(C(=O)OCc2nnc(-c3ccccc3)o2)cc1[N+](=O)[O-]`, -1.01. To `Cc1ccc(/C=C2\CCC3=C2OC(N)=C(C#N)C3c2ccc(C)cc2)cc1` (configuration not stated) belongs 0.5; to `Cc1cccc2cc3c(N)c(C(=O)N4CCc5ccccc54)sc3nc12`, -0.276; to `O=C(CCl)c1ccc2c(c1)CCN2C(=O)C1CC1`, -1.12. To `CN1C(=S)N(c2cccnc2)C(=O)/C1=C\c1ccc(C(C)(C)C)cc1` belongs -0.699. Compound `C#CC(=O)N(c1cccc(OC)c1)C(C(=O)NC1CCCC1)c1cccs1` (configuration not stated) displayed a z-score of -0.134. Consider `COc1cc2c(cc1OC)C(Cc1ccc(O)cc1)N(C)CC2` (configuration not stated), for which the z-score is -0.255. To `Cc1cc(C)nc(Sc2ncnc(N)c2[N+](=O)[O-])n1` belongs 0.0701; to `CC1(C)CC(=O)C2=C(C1)OC(N)=C(C#N)C2C#Cc1ccccc1` (configuration not stated), 0.246. In the case of `COC(=O)c1scc(C)c1NC(=O)/C=C/C(=O)O` it was -0.119; in that of `CC1C/C(=C/c2ccco2)C(=O)/C(=C/c2ccco2)C1` (configuration not stated), -0.067. To `CCCCC1OC2(C)OC(=N)C1(C#N)C(C#N)(C#N)C2c1ccccc1` (configuration not stated) belongs 0.129; to `CCN(C(=O)c1coc(=O)c(Br)c1)c1ccc2c(c1)OCO2`, 0.543. `Cc1ccc(-c2cn3nc(-c4ccccc4)c(-c4ccccc4)nc3n2)cc1` showed a z-score of 0.732.

Turning to `CCOC(=O)c1nc(S(C)(=O)=O)ncc1Cl`, the z-score was -0.326. For the compound `Cc1cc(Sc2ncnc(N)c2[N+](=O)[O-])ncn1`, the z-score is -0.444. In the case of `O=C(O)c1ccc(NC2=C(Cl)C(=O)c3ccccc3C2=O)cc1` it was 0.305; in that of `CCOC(=O)c1c(C)oc2c(F)c(F)c(F)c(F)c2c1=O`, 0.838. To `COC(=O)c1cc(=O)n(-c2ccccc2)c(=Nc2ccccc2)s1` belongs 0.702; to `N=c1n(Cc2ccccc2)c2ccccc2n1CC(O)COc1ccc(Cl)cc1Cl` (configuration not stated), -5.43; to `CNCc1ccccc1Sc1cc(O)ccc1O`, -0.609.

As to `CCOC(=O)c1c(-c2ccc(C)o2)csc1NC(=O)CSc1nncs1`, the z-score worked out at 0.142. The compound `CCC1(C)CC2(CCCN(CCC(=O)c3ccccc3)C2)CCO1` (configuration not stated) yielded a z-score of 1.16.

The compound `Cc1ccsc1/C=C/C1=Cc2c(sc(NC(=O)CSc3n[nH]c(N)n3)c2C#N)C(C)(C)C1` registered a z-score of 0.688. In the case of `Cc1cnc(NC(=O)c2nn(C)cc2[N+](=O)[O-])s1` it was 0.237. As for `COc1ccc(C(=O)CCN2CCN(c3ccccc3OC)CC2)cc1`, the z-score was -0.143. To `COc1ccccc1N1C(=O)C=C(Sc2nc(C)cc(C)n2)C1=O` belongs -0.451. In the case of `Clc1nc(CN2CCCCC2)nc2sc3c(c12)CCCC3` it was 0.497; in that of `COC(=O)c1ccc2c(c1)C(C)(C)C(/C=C/c1ccc(O)cc1)=[N+]2C`, -0.0884; in that of `Cc1cc(C)c(C)c(S(=O)(=O)ON2C(=O)c3ccccc3C2=O)c1C`, 0.0888.

Consider `S=c1sc2c(Cl)ncnc2n1-c1ccccc1`, for which the z-score is -0.0932. In the case of `O=C(CCl)N(Cc1ccccc1)c1ccccc1` it was -0.266; in that of `N#C/C(=C\c1cccs1)C(=O)c1ccccc1Cl`, 0.723. Compound `Cc1ccc(/C=C/C(=O)NCC2COc3ccccc3O2)o1` (configuration not stated) came in with a z-score of 0.0554. In the case of `N#C/C(=C/c1ccc(N2CCCCC2)o1)C(=O)Nc1ccc2ccccc2c1` it was 0.256; in that of `COc1ccc(-c2nnc(Sc3nc4ccccc4o3)c3ccccc23)cc1`, 0.00171. In the case of `O=C(CCl)N(c1ccc(Cl)cc1)c1c[nH]c2ccccc12` it was -0.446; in that of `COc1ccc(-n2nc(C#N)c(Cl)cc2=O)cc1`, -0.444.
